# Results are given in words; binding and its absence hold for the method and conditions named. Binding seen in cells or lysates may run through a third protein. Binding calls can cover weak binding; strength is not graded here. For part of these data: Tags and fused reporters may be left off the sequences shown.
# T1: full-length myc-tagged Gpsm2^FL (UniProt Q8VDU0)
# T1 sequence: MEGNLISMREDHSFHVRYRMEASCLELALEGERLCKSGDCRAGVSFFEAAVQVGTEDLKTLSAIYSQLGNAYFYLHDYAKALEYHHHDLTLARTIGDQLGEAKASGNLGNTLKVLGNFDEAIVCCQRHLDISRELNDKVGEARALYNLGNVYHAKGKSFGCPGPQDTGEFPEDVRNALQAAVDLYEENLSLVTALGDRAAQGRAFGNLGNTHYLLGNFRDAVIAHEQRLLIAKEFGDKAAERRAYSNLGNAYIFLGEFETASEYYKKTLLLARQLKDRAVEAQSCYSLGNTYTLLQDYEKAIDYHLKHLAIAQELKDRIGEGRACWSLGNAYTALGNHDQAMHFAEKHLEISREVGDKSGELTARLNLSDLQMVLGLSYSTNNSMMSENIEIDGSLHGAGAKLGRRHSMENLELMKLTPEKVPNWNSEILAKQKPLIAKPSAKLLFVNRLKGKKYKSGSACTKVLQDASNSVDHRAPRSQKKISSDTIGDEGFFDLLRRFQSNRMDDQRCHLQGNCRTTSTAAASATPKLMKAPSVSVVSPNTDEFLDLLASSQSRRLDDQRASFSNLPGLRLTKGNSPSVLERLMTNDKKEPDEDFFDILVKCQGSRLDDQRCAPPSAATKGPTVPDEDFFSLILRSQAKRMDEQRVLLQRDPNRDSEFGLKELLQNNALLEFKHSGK
# Key:
# [1] = biological target: T1, full-length myc-tagged Gpsm2^FL; experiment: co-IP; HEK293T transfected (polyethylenimine), harvested after 48 h; extracts solubilized with Triton-X-100 and protease inhibitors; lysates incubated overnight with protein A/G or A resin and anti-myc, anti-GFP or rabbit IgG; immunoblot
# [2] = biological target: green fluorescent protein (GFP)–whirlin; experiment: as above
# [3] = biological target: Gpsm2 (endogenous, rat hippocampus) (rat (endogenous in hippocampus)); experiment: co-IP; endogenous; 10 hippocampi of P21 rats solubilized with 1% DOC and 1% Triton-X-100 in 50 mM Tris pH 8; pre-immune or Gpsm2 serum with protein A resin overnight; blot with anti-whirlin and anti-Gpsm2
molecule,measurement,setting,value
untagged whirlin,binding,[1],binds
"full-length myc-tagged Gpsm2^FL (protein, UniProt Q8VDU0 1-679) MEGNLISMREDHSFHVRYRMEASCLELALEGERLCKSGDCRAGVSFFEAAVQVGTEDLKTLSAIYSQLGNAYFYLHDYAKALEYHHHDLTLARTIGDQLGEAKASGNLGNTLKVLGNFDEAIVCCQRHLDISRELNDKVGEARALYNLGNVYHAKGKSFGCPGPQDTGEFPEDVRNALQAAVDLYEENLSLVTALGDRAAQGRAFGNLGNTHYLLGNFRDAVIAHEQRLLIAKEFGDKAAERRAYSNLGNAYIFLGEFETASEYYKKTLLLARQLKDRAVEAQSCYSLGNTYTLLQDYEKAIDYHLKHLAIAQELKDRIGEGRACWSLGNAYTALGNHDQAMHFAEKHLEISREVGDKSGELTARLNLSDLQMVLGLSYSTNNSMMSENIEIDGSLHGAGAKLGRRHSMENLELMKLTPEKVPNWNSEILAKQKPLIAKPSAKLLFVNRLKGKKYKSGSACTKVLQDASNSVDHRAPRSQKKISSDTIGDEGFFDLLRRFQSNRMDDQRCHLQGNCRTTSTAAASATPKLMKAPSVSVVSPNTDEFLDLLASSQSRRLDDQRASFSNLPGLRLTKGNSPSVLERLMTNDKKEPDEDFFDILVKCQGSRLDDQRCAPPSAATKGPTVPDEDFFSLILRSQAKRMDEQRVLLQRDPNRDSEFGLKELLQNNALLEFKHSGK",binding,[2],binds
"endogenous whirlin (rat hippocampus) (protein, UniProt Q810W9 1-920) MNAQLDGLSVSSSSTGSLGSAAAAAGGGGGAGLRLLSANVRQLHQALTALLSEPEREQFTHCLNAYHARRNVFDLVRTLRVLLDSPVKRRLLPMLRLVIPRSDQLLFDQYTAEGLYLPATTPYRQPAWAAPDGAGPGEVRLVSLRRAKAHEGLGFSIRGGSEHGVGIYVSLVEPGSLAEKEGLRVGDQILRVNDKSLARVTHAEAVKALKGSKKLVLSVYSAGRIPGGYVTNHIYTWVDPQGRSTSPPSSLPHGSTLRQHEDDRRSALHLLQSGDEKKVNLVLGDGRSLGLTIRGGAEYGLGIYITGVDPGSEAESSGLKVGDQILEVNGRSFLSILHDEAVKLLKSSRHLILTVKDVGRLPHARTTVDQTKWIASSRIGESITNSAGFPGDLTEEGTNKPGFYKGPAGSQVTLSSLGNQTRALLDDQARHLLTEQERATMMYYLDQYRGGTISVEALVMALFELLNTHAKFSLLSEVRGIISPQDLDRFDHLVLRREIESMKARQPPGPGVGDTYSMVSYSDTGSSTGSHGTSTTVSSARERLLWLIDLMENTLDLEGTCETTQGSTNALPDVSVDDVRSPSEDLPGIKPPPPPPPLAQGHDRLLGQTRKPVREDSAPLSSAAHSGIVFSAPRNRSPPPPPGIAPTPTPGPSSARDSPSSPIYASISHANPSSRKPLDTHLALVNQHPIGPFPRVQSPPHLKSPPAEAPGAGACLPPPSPSEHADAMGANQHFVLVEVHRPDSEPDVNEVRALPQTRTASTLSQLSDSGQTLSEDSGVDAGETEASTSGRGRQTANTKNKNGKELPQTERTTEGANKPPGLLEPTSTLIRVRKSAATLGIAIEGGANTRQPLPRIVTIQRGGSAHNCGQLKVGHVILEVNGQTLRGKEHREAARVIAEAFKTKERDYIDFLVTEFNVML",binding,[3],binds

# Reference: PMC5385604
